From paper PMC4219657, “Structural and Mechanistic Basis of Zinc Regulation Across the E. coli Zur Regulon” (PLoS Biology, 2014)
No constants are given. Whether binding was seen depends on the method and setting.

Target: E. coli Zur site A mutant C103S (E. coli) (UniProt P0AC51)
Test: SEC; analytical gel filtration of WT Zur, C103S and C88S; elution volume of WT (10.9 ml) as reference; column and buffer not told; both purified

B1: E. coli Zur site A mutant C103S (protein, UniProt P0AC51 1-171)
chain: MEKTTTQELLAQAEKICAQRNVRLTPQRLEVLRLMSLQDGAISAYDLLDLLREAEPQAKPPTVYRALDFLLEQGFVHKVESTNSYVLCHLFDQPTHTSAMFISDRCGAVKEECAEGVEDIMHTLAAKMGFALRHNVIEAHGLCAACVEVEACRHPEQCQHDHSVQVKKKPR
With B1 the binding was “no binding”.
